SMILES strings stand for the structures. “And” between values parts separate entries of the source, which are not always exact repeats. Equal values may be shown once. Where a name gives a salt, the structure may show the parent alone. ± gives the standard deviation of the averaged measurements. The list shows a part of the results. Single values of this set are uncertain.

This assay has as its system Salmonella enterica serovar Typhimurium ST313 D23580. Description: normalized bacterial growth (OD600 20 h minus 0 h, interquartile-mean normalized) (fraction of plate interquartile mean); higher = more bacterial growth (less inhibition). The conditions noted are these: LPM (pH 5.8, low phosphate, low Mg2+), concentration: 10 µM, temperature: 37 °C.
For `C[C@@]12CCc3occc3[C@H]1CC[C@@]13C[C@@H](CC[C@H]12)[C@@](O)(CO)C3`, the normalized bacterial growth worked out at 0.931 ± 0.29. In turn, `CO/N=C(\C(=O)N[C@@H]1C(=O)N2C(C(=O)O)=C(CSc3nc(=O)c(O)nn3C)CS[C@H]12)c1csc(N)n1` [Ceftriaxone sodium] yielded a normalized bacterial growth of 1.02. `CO/N=C(\C(=O)N[C@@H]1C(=O)N2C(C(=O)O)=C(CSc3nc(=O)c(O)nn3C)CS[C@H]12)c1csc(N)n1`: the normalized bacterial growth was found to be 1.25. For `Oc1ccccc1O` [Pyrocatechol], the normalized bacterial growth came out at 1.09. The value for `CCCCN1CCC(COC(=O)c2cc(Cl)c(N)c3c2OCCO3)CC1` was 0.971; that for `COc1cccc(NC(=O)/C=C/c2ccc(Cl)cc2)c1` was 1.13; that for `FC(F)(F)c1ccccc1-n1ccnc1` [1-[2-(Trifluoromethyl)phenyl]imidazole] was 1.27. The compound `CCCCOC(=O)NS(=O)(=O)c1sc(CC(C)C)cc1-c1ccc(Cn2c(CC)nc3c(C)cc(C)nc32)cc1` registered a normalized bacterial growth of 0.65. As to `O=C(O)CS`, the normalized bacterial growth came to 0.97.

On to `COc1cc2c3cc1Oc1cc(ccc1O)C[C@@H]1c4c(cc(OC)c(O)c4Oc4ccc(cc4)C[C@@H]3N(C)CC2)CC[N+]1(C)C`, for which the normalized bacterial growth was 0.976 and 0.567.

For `Cc1ncc(CO)c(CO)c1O`, the normalized bacterial growth was 0.703. `Cc1ncc(CO)c(CO)c1O` [Pyridoxine hydrochloride] yielded a normalized bacterial growth of 1.12. Next, `CN1CCc2cc(Cl)c(O)cc2[C@@H](c2ccccc2)C1`: 1.21; `Nc1ccc(N2C(=O)c3ccccc3C2=O)c(Cl)c1` [N-(4-Amino-2-chlorophenyl)phthalimide]: 1.07.

Turning to `CCc1c(C)[nH]c2c1C(=O)C(CN1CCOCC1)CC2` (centres undefined) [Molindone hydrochloride], the normalized bacterial growth turned out to be 0.727.

As to `NC(=O)CNCCC(c1ccccc1)c1ccccc1` ["N-(3,3-Diphenylpropyl)glycinamide"], the normalized bacterial growth came to 0.882. In turn, `COc1cc(C(=O)NCCCCCC(=O)O)cc(OC)c1OC` yielded a normalized bacterial growth of 1.03.

The compound `CC1=C(C(=O)O)N2C(=O)[C@@H](NC(=O)[C@H](N)C3=CCC=CC3)[C@H]2SC1` [Cephradine] showed a normalized bacterial growth of 1.2. Compound `CC1=C(C(=O)O)N2C(=O)[C@@H](NC(=O)[C@H](N)C3=CCC=CC3)[C@H]2SC1` showed a normalized bacterial growth of 0.971 ± 0.054. With `N[C@@H](CCC(=O)N[C@@H](CS)C(=O)NCC(=O)O)C(=O)O`, the normalized bacterial growth came to 1.03. `CC1=C(/C=C/C(C)=C/C=C/C(C)=C/C(=O)O)C(C)(C)CCC1` had a normalized bacterial growth of 0.844.

As for `CC(=O)O[C@@H]1CC2C(C)(C)[C@H](O)C=C[C@]2(C)C2CC[C@@]3(C)[C@H](c4ccoc4)OC(=O)C4OC43[C@@]21C` (some centres undefined), the normalized bacterial growth stood at 0.927.

As to `CC(O)C(O)[C@H]1CNc2nc(N)[nH]c(=O)c2N1` (stereo partly drawn) ["(6R)-5,6,7,8-Tetrahydro-L-biopterin hydrochloride"], the normalized bacterial growth is 1.

The compound `CC(C)=CC[C@@H](O)C1=CC(=O)c2c(O)ccc(O)c2C1=O` came in with a normalized bacterial growth of 1.11. For the compound `NC(=O)C1=CN(C2OC(COP(=O)(O)OP(=O)(O)OC[C@H]3O[C@@H](n4cnc5c(N)ncnc54)C(OP(=O)(O)O)[C@H]3O)C(O)C2O)C=CC1` (some centres undefined) [NADPH tetrasodium], the normalized bacterial growth was found to be 1.21.

As to `CC(=O)Oc1ccccc1C(=O)O` [Acetylsalicylic acid], the normalized bacterial growth is 1.35.

Consider `O=c1cc(-c2ccccc2)oc2cc(O)ccc12`, for which the normalized bacterial growth came to 1.17. In the case of `O=C(O)[C@H]1NCCC[C@H]1C(=O)O` ["()-cis-Piperidine-2,3-dicarboxylic acid"], the normalized bacterial growth was 1.27. `CC1=C(/C=C/C(C)=C/C=C/C(C)=C/C=C/C=C(C)/C=C/C=C(C)/C=C/C2=C(C)C(=O)[C@@H](O)CC2(C)C)C(C)(C)C[C@H](O)C1=O` [Astaxanthin]: the normalized bacterial growth was 1.18.

For the compound `COc1ccc2ccc(=O)oc2c1CC=C(C)C`, the normalized bacterial growth amounted to 0.941. Take `N=C(N)NS(=O)(=O)c1ccc(N)cc1`: the normalized bacterial growth is 0.515. As for `COc1cc2nc(N(C)CCCNC(=O)C3CCCO3)nc(N)c2cc1OC` (centres undefined) [Alfuzosin hydrochloride], the normalized bacterial growth amounted to 1.02. Next, `Clc1ccc(Cn2c(CN3CCCC3)nc3ccccc32)cc1` [Clemizole hydrochloride]: 0.942; `O=C(O)/C=C/c1ccc(O)c(O)c1` [Caffeic acid]: 1.3; `O=C(O)/C=C/c1ccc(O)c(O)c1`: 0.924. Next, `OCC1OC(n2cnc3c(NC4CCCCC4)ncnc32)C(O)C1O` (centres undefined) [N6-Cyclohexyladenosine]: 1.13; `N[C@@H](Cc1c[nH]c2ccc(O)cc12)C(=O)O` [5-Hydroxy-L-tryptophan]: 1.11.

For the compound `CCCCCCCCCCCCCCCC(=O)OC[C@@H](NC(=O)C(Cl)Cl)[C@H](O)c1ccc([N+](=O)[O-])cc1`, the normalized bacterial growth is 1.16.

`O=C(O)COCCN1CCN(C(c2ccccc2)c2ccc(Cl)cc2)CC1` (centres undefined) [Cetirizine dihydrochloride] gave a normalized bacterial growth of 1.26. In the case of `C#C[C@]1(OC(C)=O)CC[C@H]2[C@@H]3CCC4=CC(=NO)CC[C@@H]4[C@H]3CC[C@@]21CC` (mixture of isomers), the normalized bacterial growth stood at 1.12. Take `COc1ccc2cc([C@H](C)CO)ccc2c1`: the normalized bacterial growth worked out at 0.887. `CC(=O)O[C@]1(C(C)=O)CC[C@H]2[C@@H]3C=C(Cl)C4=CC(=O)[C@@H]5C[C@@H]5[C@]4(C)[C@H]3CC[C@@]21C` [Cyproterone acetate]: the normalized bacterial growth is 0.888.

Take `CC(=O)O[C@]1(C(C)=O)CC[C@H]2[C@@H]3C=C(Cl)C4=CC(=O)[C@@H]5C[C@@H]5[C@]4(C)[C@H]3CC[C@@]21C`: the normalized bacterial growth was determined as 0.82. `O=C(O)C1CCCN(CCC=C(c2ccccc2)c2ccccc2)C1` (centres undefined): the normalized bacterial growth turned out to be 1.

Compound `Clc1ccc(CO/N=C(\Cn2ccnc2)c2ccc(Cl)cc2Cl)c(Cl)c1` had a normalized bacterial growth of 0.859. In turn, `Nc1ncnc2c1ncn2[C@@H]1O[C@H](CO)[C@@H](O)[C@H]1O` [Adenosine] displayed a normalized bacterial growth of 1.1. Compound `Nc1ncnc2c1ncn2[C@@H]1O[C@H](CO)[C@@H](O)[C@H]1O` registered a normalized bacterial growth of 1.11. The compound `Clc1ccc(CSC(Cn2ccnc2)c2ccc(Cl)cc2Cl)cc1` (centres undefined) had a normalized bacterial growth of 1.18. Next, `C[n+]1cc2c3c(ccc2c2ccc4cc5c(cc4c21)OCO5)OCO3`: 0.9 and 0.505; `C[n+]1cc2c3c(ccc2c2ccc4cc5c(cc4c21)OCO5)OCO3` [Sanguinarine chloride]: 0.761; `COc1ccc2c(c1)OCC(Cc1ccc(O)c(OC)c1)C2=O` (centres undefined): 1.3. On to `COc1ccccc1N1CCN(CCN(C(=O)C2CCCCC2)c2ccccn2)CC1`, for which the normalized bacterial growth was 0.981.

`CN(C)CCN(Cc1ccccc1)c1ccccn1` came in with a normalized bacterial growth of 0.902.

In turn, `C=CC1=C(C)c2cc3[nH]c(cc4nc(cc5[nH]c(cc1n2)c(C)c5CCC(=O)O)C(CCC(=O)O)=C4C)c(C)c3C=C` [Protoporphyrin IX disodium] registered a normalized bacterial growth of 0.991.

The values are drawn from the supplement of paper PMC10398353.
